For the assay, the system named is mice, P1798 lymphosarcoma sc, survival or tumor weight T/C. The experiment in a line: NCI In Vivo Anticancer Drug Screen. Data for tumor model P1798 Lymphosarcoma (subcutaneous) in unknown mice. How it is done:
The antitumor activity of compounds was measured in mice bearing transplantable tumors. Survival or tumor size were measured and the results are expressed as the measurement made in the treated group (T) divided by the measurement made in the vehicle treated control group (C). The tumor model used in this assay is P1798 Lymphosarcoma (subcutaneous) in unknown mice

The mark [1] stands for this setting: T/C endpoint: mean tumor weight, dose: 25.0 mg/kg/injection, schedule: Q01DX010 (ip), vehicle: carboxymethylcellulose (CMC), higher T/C = larger tumour.
[2] abbreviates: T/C endpoint: mean tumor weight, dose: 50.0 mg/kg/injection, schedule: Q01DX010 (ip), vehicle: carboxymethylcellulose (CMC), higher T/C = larger tumour.
The mark [3] stands for this setting: T/C endpoint: mean tumor weight, dose: 100.0 mg/kg/injection, schedule: Q01DX010 (ip), vehicle: carboxymethylcellulose (CMC), higher T/C = larger tumour.

Each structure is given as a SMILES string. The list does not hold the whole screen: it gathers tests that were run many times, whatever their T/C, doses with no T/C, and many T/C values between a quarter and a half above the control. Further doses and runs are listed elsewhere. T/C gives the treated animals as a percentage of the vehicle group. Schedules are NCI's codes, taken here to give the interval after Q, in days (D) or hours (H), and the number of doses after X. Some T/C values carry the count of animals alive at the toxicity check (mostly the fifth day); without a count, all were alive then. Some doses were run more than once; their values stand side by side, smallest first. Some doses have a count of surviving animals in place of a T/C: the source holds a T/C of zero for them, seemingly a mark for toxic or unscored doses. Some doses without a T/C left all or most animals alive at the check, yet need not have been tolerated: survival well below the control is almost never listed, so the zero probably covers shortened survival too. Survivors were counted at the toxicity check, usually on the fifth day, unless a day is given; later deaths do not show.

`CO[C@H](C(=O)[C@@H](O)[C@@H](C)O)[C@@H]1Cc2cc3cc(OC4CC(OC5CC(O)C(O)C(C)O5)C(O)C(C)O4)c(C)c(O)c3c(O)c2C(=O)[C@H]1OC1CC(OC2CC(OC3CC(C)(O)C(O)C(C)O3)C(O)C(C)O2)C(O)C(C)O1` (some centres not stated): the T/C is, setting by setting: (T/C endpoint: mean tumor weight, dose: 0.12 mg/kg/injection, schedule: Q01DX011 (ip), vehicle: saline, evaluated on day 12, higher T/C = larger tumour) 91, 92, 114, 118 % of control; (T/C endpoint: mean tumor weight, dose: 0.25 mg/kg/injection, schedule: Q01DX011 (ip), vehicle: saline, evaluated on day 12, higher T/C = larger tumour) 48, 61, 86, 138 % of control [9 of 10 alive]; (T/C endpoint: mean tumor weight, dose: 0.5 mg/kg/injection, schedule: Q01DX011 (ip), vehicle: saline, evaluated on day 12, higher T/C = larger tumour) 10 [7 of 10 alive] and 34 % of control [9 of 10 alive]. For the same molecule, the survivor count reads like this: (T/C endpoint: mean tumor weight, dose: 0.25 mg/kg/injection, schedule: Q01DX011 (ip), vehicle: saline, higher T/C = larger tumour) 5 of 10; (T/C endpoint: mean tumor weight, dose: 0.5 mg/kg/injection, schedule: Q01DX011 (ip), vehicle: saline, higher T/C = larger tumour) 5 of 10; (T/C endpoint: mean tumor weight, dose: 1.0 mg/kg/injection, schedule: Q01DX011 (ip), vehicle: saline, higher T/C = larger tumour) 0 of 10; (T/C endpoint: mean tumor weight, dose: 2.0 mg/kg/injection, schedule: Q01DX011 (ip), vehicle: saline, higher T/C = larger tumour) 0 of 10.
For the molecule `Nc1ncnc2[nH]ncc12`, the survivor count was 0 of 10 under setting [1] and 0 of 10 under setting [2].
Regarding `COc1cccc2c1C(=O)c1c(O)c3c(c(O)c1C2=O)C[C@@](O)(C(=O)CO)C[C@@H]3OC1CC(N)C(O)C(C)O1` (some centres not stated), the survivor count reads like this: (T/C endpoint: median survival time, dose: 0.25 mg/kg/injection, schedule: Q01DX010 (ip), vehicle: water, higher T/C = longer survival) 10 of 10; (T/C endpoint: median survival time, dose: 2.0 mg/kg/injection, schedule: Q01DX010 (ip), vehicle: water, higher T/C = longer survival) 9 of 10; (T/C endpoint: median survival time, dose: 4.0 mg/kg/injection, schedule: Q01DX010 (ip), vehicle: water, higher T/C = longer survival) 10 of 10; (T/C endpoint: median survival time, dose: 4.0 mg/kg/injection, schedule: Q04DX007 (ip), vehicle: water, higher T/C = longer survival) 10 of 10; (T/C endpoint: median survival time, dose: 8.0 mg/kg/injection, schedule: Q04DX007 (ip), vehicle: water, higher T/C = longer survival) 10 of 10; (T/C endpoint: median survival time, dose: 16.0 mg/kg/injection, schedule: Q04DX007 (ip), vehicle: water, higher T/C = longer survival) 10 of 10.
For the molecule `CC(=O)[C@@]1(O)CC[C@H]2[C@@H]3C[C@H](C)C4=CC(=O)C=C[C@]4(C)[C@@]3(F)[C@@H](O)C[C@@]21C`, the survivor count was 0 of 10 (T/C endpoint: mean tumor weight, dose: 125.0 mg/kg/injection, schedule: Q01DX010 (sc), vehicle: steroid suspending solution, higher T/C = larger tumour); 0 of 10 (T/C endpoint: mean tumor weight, dose: 250.0 mg/kg/injection, schedule: Q01DX010 (sc), vehicle: steroid suspending solution, higher T/C = larger tumour); 0 of 10 (T/C endpoint: mean tumor weight, dose: 500.0 mg/kg/injection, schedule: Q01DX010 (sc), vehicle: steroid suspending solution, higher T/C = larger tumour); 0 of 10 (T/C endpoint: mean tumor weight, dose: 1000.0 mg/kg/injection, schedule: Q01DX010 (sc), vehicle: steroid suspending solution, higher T/C = larger tumour).
For the molecule `CCCNc1ncnc2[nH]ncc12`, the survivor count runs as follows: (T/C endpoint: mean tumor weight, dose: 20.0 mg/kg/injection, schedule: Q01DX010 (ip), vehicle: water, higher T/C = larger tumour) 3 of 10; (T/C endpoint: mean tumor weight, dose: 40.0 mg/kg/injection, schedule: Q01DX010 (ip), vehicle: water, higher T/C = larger tumour) 0 of 10.
`N=[N+]=CC(=O)OCC(N)C(=O)O` (configuration not stated): the survivor count is 1 of 10 (T/C endpoint: mean tumor weight, dose: 10.0 mg/kg/injection, schedule: Q01DX010 (ip), vehicle: saline, higher T/C = larger tumour) and 0 of 10 (T/C endpoint: mean tumor weight, dose: 20.0 mg/kg/injection, schedule: Q01DX010 (ip), vehicle: saline, higher T/C = larger tumour).
Regarding `O=C(O)C(=O)c1ccc(-c2ccccc2)cc1`, the survivor count is, setting by setting: (T/C endpoint: mean tumor weight, dose: 250.0 mg/kg/injection, schedule: Q01DX010 (ip), vehicle: methylcellulose (MC), higher T/C = larger tumour) 2 of 10; (T/C endpoint: mean tumor weight, dose: 500.0 mg/kg/injection, schedule: Q01DX010 (ip), vehicle: methylcellulose (MC), higher T/C = larger tumour) 0 of 10.
Take `CC(CCC(C)OS(C)(=O)=O)OS(C)(=O)=O` (configuration not stated): the survivor count (T/C endpoint: mean tumor weight, dose: 80.0 mg/kg/injection, schedule: Q01DX010 (ip), vehicle: carboxymethylcellulose (CMC), higher T/C = larger tumour) is on record as 0 of 10.
As for `CCNc1nncs1`, the survivor count runs as follows: (T/C endpoint: mean tumor weight, dose: 75.0 mg/kg/injection, schedule: Q01DX010 (ip), vehicle: carboxymethylcellulose (CMC), higher T/C = larger tumour) 6 of 10; (T/C endpoint: mean tumor weight, dose: 150.0 mg/kg/injection, schedule: Q01DX010 (ip), vehicle: carboxymethylcellulose (CMC), higher T/C = larger tumour) 0 of 10.
As to `O=c1[nH]c(Cl)ncc1F`, the survivor count by setting is: (T/C endpoint: mean tumor weight, dose: 22.0 mg/kg/injection, schedule: Q01DX010 (ip), vehicle: saline, higher T/C = larger tumour) 3 of 6; (T/C endpoint: mean tumor weight, dose: 33.0 mg/kg/injection, schedule: Q01DX010 (ip), vehicle: saline, higher T/C = larger tumour) 0 of 6; (T/C endpoint: mean tumor weight, dose: 50.0 mg/kg/injection, schedule: Q01DX010 (ip), vehicle: saline, higher T/C = larger tumour) 0 of 6; (T/C endpoint: mean tumor weight, dose: 75.0 mg/kg/injection, schedule: Q01DX010 (ip), vehicle: saline, higher T/C = larger tumour) 0 of 6.
`CC[C@]1(O)C[C@H]2CN(CCc3c([nH]c4ccccc34)[C@@](C(=O)OC)(c3cc4c(cc3OC)N(C=O)[C@H]3[C@@](O)(C(=O)OC)[C@H](OC(C)=O)[C@]5(CC)C=CCN6CC[C@]43[C@@H]65)C2)C1`: the T/C runs as follows: (T/C endpoint: mean tumor weight, dose: 0.06 mg/kg/injection, schedule: Q01DX010 (ip), vehicle: water, evaluated on day 14, higher T/C = larger tumour) 7, 10, 11, 18, 38 % of control; (T/C endpoint: mean tumor weight, dose: 0.12 mg/kg/injection, schedule: Q01DX010 (ip), vehicle: water, evaluated on day 14, higher T/C = larger tumour) 1, 22 [9 of 10 alive], 36 % of control; (T/C endpoint: mean tumor weight, dose: 0.25 mg/kg/injection, schedule: Q01DX010 (ip), vehicle: water, evaluated on day 14, higher T/C = larger tumour) 1, 5 [9 of 10 alive], 27 % of control; (T/C endpoint: mean tumor weight, dose: 31.0 micrograms/kg/injection, schedule: Q01DX010 (ip), vehicle: water, evaluated on day 20, higher T/C = larger tumour) 137 % of control [9 of 10 alive]. Besides, the survivor count is 1 of 10 (T/C endpoint: mean tumor weight, dose: 0.25 mg/kg/injection, schedule: Q01DX010 (ip), vehicle: water, higher T/C = larger tumour); 5 of 10 (T/C endpoint: mean tumor weight, dose: 2.7 mg/kg/injection, schedule: Q01DX001 (ip), vehicle: saline, higher T/C = larger tumour); 4 of 10 (T/C endpoint: mean tumor weight, dose: 250.0 micrograms/kg/injection, schedule: Q01DX010 (ip), vehicle: water, higher T/C = larger tumour).
Take `CCCCCCCCCCCCCCCCC(C(=O)O)C(O)(CC(=O)O)C(=O)O` (configuration not stated): the survivor count under setting [2] is 6 of 10 and the survivor count under setting [3] was 0 of 10.
`CN(C)CC(=O)c1ccc(O)c(O)c1`: the T/C reads like this: (T/C endpoint: mean tumor weight, dose: 62.5 mg/kg/injection, schedule: Q01DX010 (ip), vehicle: saline, evaluated on day 14, higher T/C = larger tumour) 142 % of control; (T/C endpoint: mean tumor weight, dose: 125.0 mg/kg/injection, schedule: Q01DX010 (ip), vehicle: saline, evaluated on day 14, higher T/C = larger tumour) 141 % of control; (T/C endpoint: mean tumor weight, dose: 500.0 mg/kg/injection, schedule: Q01DX010 (ip), vehicle: saline, evaluated on day 14, higher T/C = larger tumour) 131 % of control.
Take `Nc1nc(=S)c2[nH]cnc2[nH]1`: the survivor count (T/C endpoint: mean tumor weight, dose: 1.0 mg/kg/injection, schedule: Q01DX010 (ip), vehicle: carboxymethylcellulose (CMC), higher T/C = larger tumour) was 1 of 10 and the survivor count (T/C endpoint: mean tumor weight, dose: 2.0 mg/kg/injection, schedule: Q01DX010 (ip), vehicle: carboxymethylcellulose (CMC), higher T/C = larger tumour) is given as 0 of 10.
Consider `COc1cc2c(c(OC)c1OC)-c1ccc(OC)c(=O)cc1[C@@H](NC(C)=O)CC2`, for which the survivor count (T/C endpoint: mean tumor weight, dose: 1.0 mg/kg/injection, schedule: Q01DX010 (ip), vehicle: saline, higher T/C = larger tumour) is given as 0 of 10.
For the molecule `CCCCNc1ncnc2c1cnn2C`, where the note is “T/C endpoint: mean tumor weight, dose: 3.12 mg/kg/injection, schedule: Q01DX010 (ip), vehicle: carboxymethylcellulose (CMC), evaluated on day 14, higher T/C = larger tumour”, the T/C is 125 % of control. Besides, the survivor count by setting is: under setting [1], 6 of 10; under setting [2], 2 of 10; under setting [3], 0 of 10; (T/C endpoint: mean tumor weight, dose: 200.0 mg/kg/injection, schedule: Q01DX010 (ip), vehicle: carboxymethylcellulose (CMC), higher T/C = larger tumour) 0 of 10.
With `[I][Hg][CH2]C1COC([CH2][Hg][I])CO1` (configuration not stated), under “T/C endpoint: mean tumor weight, dose: 15.0 mg/kg/injection, schedule: Q01DX010 (ip), vehicle: carboxymethylcellulose (CMC), higher T/C = larger tumour”, the survivor count is 6 of 10.
Regarding `CCOC(N)=O`, the survivor count (T/C endpoint: mean tumor weight, dose: 1000.0 mg/kg/injection, schedule: Q01DX010 (ip), vehicle: saline, higher T/C = larger tumour) was 0 of 10 and 6 of 10.
As to `Nc1nc(=S)c2ncn(C3OC(CO)C(O)C3O)c2[nH]1` (configuration not stated), the survivor count runs as follows: (T/C endpoint: mean tumor weight, dose: 5.0 mg/kg/injection, schedule: Q01DX010 (ip), vehicle: carboxymethylcellulose (CMC), higher T/C = larger tumour) 0 of 10; (T/C endpoint: mean tumor weight, dose: 8.0 mg/kg/injection, schedule: Q01DX010 (ip), vehicle: saline, higher T/C = larger tumour) 3 of 6; (T/C endpoint: mean tumor weight, dose: 16.0 mg/kg/injection, schedule: Q01DX010 (ip), vehicle: saline, higher T/C = larger tumour) 1 of 6.

The values are drawn from PubChem BioAssay AID290 (DTP/NCI, 2004).
